From the supplement of paper PMC10849652
The list shows a part of the results.

Amino acid sequences for entries named in this document (tags omitted). A change or cut given only in a name is not applied to a line headed by its entry.
UniProt Q8IUF1: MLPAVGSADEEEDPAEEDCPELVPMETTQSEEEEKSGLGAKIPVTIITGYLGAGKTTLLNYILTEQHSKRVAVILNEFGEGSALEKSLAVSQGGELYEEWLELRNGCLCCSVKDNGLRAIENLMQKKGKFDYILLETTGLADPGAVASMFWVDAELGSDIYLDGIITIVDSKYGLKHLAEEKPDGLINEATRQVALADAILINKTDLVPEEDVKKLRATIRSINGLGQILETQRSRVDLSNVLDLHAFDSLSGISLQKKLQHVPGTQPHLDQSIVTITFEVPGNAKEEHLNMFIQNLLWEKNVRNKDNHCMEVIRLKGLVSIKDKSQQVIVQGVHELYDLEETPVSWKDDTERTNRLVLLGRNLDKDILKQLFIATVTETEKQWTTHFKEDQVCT
UniProt P50991: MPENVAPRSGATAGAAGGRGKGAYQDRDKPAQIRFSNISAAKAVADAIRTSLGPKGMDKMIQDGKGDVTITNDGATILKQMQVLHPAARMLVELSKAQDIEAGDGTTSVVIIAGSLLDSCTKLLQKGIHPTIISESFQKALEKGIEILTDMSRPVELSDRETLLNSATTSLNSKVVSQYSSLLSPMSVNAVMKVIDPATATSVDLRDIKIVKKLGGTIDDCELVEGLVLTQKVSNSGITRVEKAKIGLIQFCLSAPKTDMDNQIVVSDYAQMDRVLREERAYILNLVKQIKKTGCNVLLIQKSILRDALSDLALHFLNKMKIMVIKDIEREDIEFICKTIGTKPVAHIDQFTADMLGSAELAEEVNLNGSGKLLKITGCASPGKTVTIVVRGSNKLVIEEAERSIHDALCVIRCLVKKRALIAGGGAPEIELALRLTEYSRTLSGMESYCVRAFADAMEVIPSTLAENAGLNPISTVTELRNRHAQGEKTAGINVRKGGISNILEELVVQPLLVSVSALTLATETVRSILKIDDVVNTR
UniProt Q9BSQ5: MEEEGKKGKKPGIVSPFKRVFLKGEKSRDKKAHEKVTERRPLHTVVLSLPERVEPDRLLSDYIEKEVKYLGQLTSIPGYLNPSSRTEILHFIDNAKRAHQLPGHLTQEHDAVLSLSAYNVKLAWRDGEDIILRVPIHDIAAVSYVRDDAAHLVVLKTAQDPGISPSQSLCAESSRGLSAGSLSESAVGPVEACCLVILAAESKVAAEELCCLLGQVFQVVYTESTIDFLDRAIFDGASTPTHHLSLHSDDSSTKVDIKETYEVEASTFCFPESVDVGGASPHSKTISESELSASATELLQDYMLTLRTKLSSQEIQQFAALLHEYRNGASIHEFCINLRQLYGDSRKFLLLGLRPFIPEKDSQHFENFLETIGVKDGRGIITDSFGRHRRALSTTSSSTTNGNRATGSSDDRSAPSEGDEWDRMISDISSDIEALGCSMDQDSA
UniProt Q92851: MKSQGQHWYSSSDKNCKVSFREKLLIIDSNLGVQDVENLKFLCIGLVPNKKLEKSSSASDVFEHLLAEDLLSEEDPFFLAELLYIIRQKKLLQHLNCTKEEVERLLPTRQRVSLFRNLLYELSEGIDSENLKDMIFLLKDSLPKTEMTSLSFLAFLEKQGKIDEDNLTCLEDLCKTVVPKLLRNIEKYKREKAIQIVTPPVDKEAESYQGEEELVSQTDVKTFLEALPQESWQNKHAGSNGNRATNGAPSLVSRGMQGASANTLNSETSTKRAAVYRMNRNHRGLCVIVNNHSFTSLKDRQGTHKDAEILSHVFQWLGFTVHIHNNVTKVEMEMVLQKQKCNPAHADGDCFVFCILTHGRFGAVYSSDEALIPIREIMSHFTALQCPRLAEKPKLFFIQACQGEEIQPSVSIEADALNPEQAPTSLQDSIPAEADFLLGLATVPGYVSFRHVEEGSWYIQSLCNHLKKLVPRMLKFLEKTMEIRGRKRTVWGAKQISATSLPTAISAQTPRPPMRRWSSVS
UniProt Q8IWP9: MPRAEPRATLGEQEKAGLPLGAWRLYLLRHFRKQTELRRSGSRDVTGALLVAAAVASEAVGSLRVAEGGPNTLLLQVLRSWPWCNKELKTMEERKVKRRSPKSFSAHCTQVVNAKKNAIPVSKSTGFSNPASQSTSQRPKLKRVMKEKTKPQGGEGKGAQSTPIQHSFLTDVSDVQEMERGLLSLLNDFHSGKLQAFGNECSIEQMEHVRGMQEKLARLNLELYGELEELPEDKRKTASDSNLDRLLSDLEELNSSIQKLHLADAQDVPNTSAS
UniProt Q6P1N0: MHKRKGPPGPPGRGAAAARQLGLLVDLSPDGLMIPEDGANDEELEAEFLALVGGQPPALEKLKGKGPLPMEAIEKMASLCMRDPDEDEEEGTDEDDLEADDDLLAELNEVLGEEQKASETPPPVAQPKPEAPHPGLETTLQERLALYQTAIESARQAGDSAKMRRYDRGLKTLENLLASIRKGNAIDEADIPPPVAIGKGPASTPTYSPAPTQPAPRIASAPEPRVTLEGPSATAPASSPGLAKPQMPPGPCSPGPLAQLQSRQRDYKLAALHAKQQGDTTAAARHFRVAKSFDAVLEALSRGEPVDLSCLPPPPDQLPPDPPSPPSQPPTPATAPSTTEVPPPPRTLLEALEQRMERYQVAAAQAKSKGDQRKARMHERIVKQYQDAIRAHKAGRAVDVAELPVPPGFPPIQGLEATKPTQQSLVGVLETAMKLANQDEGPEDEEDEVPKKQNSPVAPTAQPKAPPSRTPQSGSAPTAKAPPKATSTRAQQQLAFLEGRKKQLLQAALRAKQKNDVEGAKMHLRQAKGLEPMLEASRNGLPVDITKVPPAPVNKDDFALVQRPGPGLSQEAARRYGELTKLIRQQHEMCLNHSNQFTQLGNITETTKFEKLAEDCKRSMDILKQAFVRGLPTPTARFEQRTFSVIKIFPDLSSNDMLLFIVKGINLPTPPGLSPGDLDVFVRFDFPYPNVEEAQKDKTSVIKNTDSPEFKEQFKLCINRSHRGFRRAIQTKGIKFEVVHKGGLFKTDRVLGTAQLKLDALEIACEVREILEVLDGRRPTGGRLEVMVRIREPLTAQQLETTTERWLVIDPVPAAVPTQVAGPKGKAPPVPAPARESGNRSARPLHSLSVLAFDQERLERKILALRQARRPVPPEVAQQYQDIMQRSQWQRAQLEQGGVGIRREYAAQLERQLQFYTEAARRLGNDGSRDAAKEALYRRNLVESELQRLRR
UniProt P08174: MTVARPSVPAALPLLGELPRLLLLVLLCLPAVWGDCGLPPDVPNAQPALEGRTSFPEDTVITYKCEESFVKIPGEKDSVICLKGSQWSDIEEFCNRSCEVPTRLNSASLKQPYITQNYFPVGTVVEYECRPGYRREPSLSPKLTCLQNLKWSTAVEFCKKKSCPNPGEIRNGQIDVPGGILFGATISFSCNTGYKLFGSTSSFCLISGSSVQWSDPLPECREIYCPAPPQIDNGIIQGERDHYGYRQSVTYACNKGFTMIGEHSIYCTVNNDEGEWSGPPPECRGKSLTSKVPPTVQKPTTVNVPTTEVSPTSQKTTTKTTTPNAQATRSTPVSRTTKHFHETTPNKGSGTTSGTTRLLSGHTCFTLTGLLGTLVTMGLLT
UniProt P49589: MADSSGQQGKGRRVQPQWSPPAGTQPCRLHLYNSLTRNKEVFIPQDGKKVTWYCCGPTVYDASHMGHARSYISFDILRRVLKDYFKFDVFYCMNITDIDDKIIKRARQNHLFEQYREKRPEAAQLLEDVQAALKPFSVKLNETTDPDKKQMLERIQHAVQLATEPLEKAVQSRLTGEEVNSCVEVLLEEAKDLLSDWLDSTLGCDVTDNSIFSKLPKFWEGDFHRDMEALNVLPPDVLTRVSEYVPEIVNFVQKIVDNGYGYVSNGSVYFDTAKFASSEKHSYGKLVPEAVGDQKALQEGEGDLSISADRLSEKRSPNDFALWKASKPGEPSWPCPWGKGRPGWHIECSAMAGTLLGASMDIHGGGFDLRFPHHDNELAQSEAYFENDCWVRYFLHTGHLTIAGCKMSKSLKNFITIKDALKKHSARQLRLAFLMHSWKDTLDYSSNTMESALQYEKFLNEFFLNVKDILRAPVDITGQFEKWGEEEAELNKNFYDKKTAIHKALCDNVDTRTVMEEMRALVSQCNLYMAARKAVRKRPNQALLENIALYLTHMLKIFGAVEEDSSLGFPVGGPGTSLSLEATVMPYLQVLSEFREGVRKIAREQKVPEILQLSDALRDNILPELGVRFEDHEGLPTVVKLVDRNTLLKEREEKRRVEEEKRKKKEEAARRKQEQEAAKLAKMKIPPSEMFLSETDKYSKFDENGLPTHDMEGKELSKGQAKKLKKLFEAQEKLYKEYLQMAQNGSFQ
UniProt Q96S94: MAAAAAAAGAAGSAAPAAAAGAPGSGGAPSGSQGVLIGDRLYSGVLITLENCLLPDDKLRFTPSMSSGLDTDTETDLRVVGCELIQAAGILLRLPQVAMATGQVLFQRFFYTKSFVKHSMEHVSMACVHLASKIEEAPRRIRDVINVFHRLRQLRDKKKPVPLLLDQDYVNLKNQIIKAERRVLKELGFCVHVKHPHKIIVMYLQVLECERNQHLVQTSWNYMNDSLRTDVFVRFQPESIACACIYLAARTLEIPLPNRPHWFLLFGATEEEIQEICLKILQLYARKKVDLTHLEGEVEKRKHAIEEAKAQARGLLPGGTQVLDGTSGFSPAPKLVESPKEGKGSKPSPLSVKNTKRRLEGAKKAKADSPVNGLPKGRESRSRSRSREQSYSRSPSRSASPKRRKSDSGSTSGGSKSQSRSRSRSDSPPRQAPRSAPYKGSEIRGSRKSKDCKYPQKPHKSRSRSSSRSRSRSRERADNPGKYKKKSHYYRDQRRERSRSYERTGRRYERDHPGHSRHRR
UniProt Q9BV29: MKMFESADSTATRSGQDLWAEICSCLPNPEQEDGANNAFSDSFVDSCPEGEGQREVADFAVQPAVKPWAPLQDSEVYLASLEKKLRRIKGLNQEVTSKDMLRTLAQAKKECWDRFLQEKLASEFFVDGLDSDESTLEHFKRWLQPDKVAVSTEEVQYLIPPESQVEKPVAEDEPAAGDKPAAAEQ
UniProt Q9BUN5: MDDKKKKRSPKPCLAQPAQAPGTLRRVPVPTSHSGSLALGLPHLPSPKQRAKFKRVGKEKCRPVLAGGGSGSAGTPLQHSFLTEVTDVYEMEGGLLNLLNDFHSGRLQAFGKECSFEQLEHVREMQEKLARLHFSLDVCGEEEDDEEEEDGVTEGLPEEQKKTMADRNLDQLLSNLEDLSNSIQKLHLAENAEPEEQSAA
UniProt Q7Z3E2: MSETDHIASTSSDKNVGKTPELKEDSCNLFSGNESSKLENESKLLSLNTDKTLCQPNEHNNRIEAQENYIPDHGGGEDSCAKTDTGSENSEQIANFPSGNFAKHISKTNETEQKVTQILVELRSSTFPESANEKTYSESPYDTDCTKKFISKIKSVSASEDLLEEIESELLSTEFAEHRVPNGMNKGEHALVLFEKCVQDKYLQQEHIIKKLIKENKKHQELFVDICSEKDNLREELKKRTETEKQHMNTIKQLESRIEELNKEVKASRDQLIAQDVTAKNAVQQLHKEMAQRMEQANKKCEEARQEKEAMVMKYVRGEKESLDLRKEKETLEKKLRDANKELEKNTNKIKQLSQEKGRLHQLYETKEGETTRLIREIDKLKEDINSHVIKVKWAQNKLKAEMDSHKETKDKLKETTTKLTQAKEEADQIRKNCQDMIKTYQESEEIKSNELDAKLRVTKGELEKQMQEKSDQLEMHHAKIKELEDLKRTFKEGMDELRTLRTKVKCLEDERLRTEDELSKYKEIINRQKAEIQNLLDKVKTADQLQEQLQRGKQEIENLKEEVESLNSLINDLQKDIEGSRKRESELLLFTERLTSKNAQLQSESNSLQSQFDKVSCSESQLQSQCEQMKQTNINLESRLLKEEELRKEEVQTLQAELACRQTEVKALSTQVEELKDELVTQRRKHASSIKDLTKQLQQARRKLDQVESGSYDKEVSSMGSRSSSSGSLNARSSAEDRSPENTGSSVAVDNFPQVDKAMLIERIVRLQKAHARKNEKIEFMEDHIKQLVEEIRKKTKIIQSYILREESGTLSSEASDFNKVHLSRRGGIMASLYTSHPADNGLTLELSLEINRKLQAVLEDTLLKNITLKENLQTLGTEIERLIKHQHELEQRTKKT
UniProt Q9H257: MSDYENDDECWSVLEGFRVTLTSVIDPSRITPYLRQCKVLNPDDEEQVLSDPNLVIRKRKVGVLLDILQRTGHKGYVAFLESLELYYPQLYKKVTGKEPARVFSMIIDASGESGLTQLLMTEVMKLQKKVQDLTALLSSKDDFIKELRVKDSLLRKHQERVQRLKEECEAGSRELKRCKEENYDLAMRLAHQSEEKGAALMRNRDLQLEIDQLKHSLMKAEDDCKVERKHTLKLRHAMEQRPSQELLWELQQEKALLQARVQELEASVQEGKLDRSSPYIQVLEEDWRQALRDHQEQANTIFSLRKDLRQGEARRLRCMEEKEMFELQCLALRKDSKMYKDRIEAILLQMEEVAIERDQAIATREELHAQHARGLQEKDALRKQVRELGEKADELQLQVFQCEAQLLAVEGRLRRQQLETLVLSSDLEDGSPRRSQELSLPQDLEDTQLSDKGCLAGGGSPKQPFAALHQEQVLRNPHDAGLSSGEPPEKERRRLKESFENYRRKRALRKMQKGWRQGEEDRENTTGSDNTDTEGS

Experiments:
Assay in all cases: log2 fold change, soluble protein after heating vs DMSO (PISA); higher = thermal stabilisation; K562 lysate, 10 uM; active = over 0.2 and 3.5 SD of the protein, either way, in both replicates (recomputed)
ibrutinib = compound: C=CC(=O)N1CCC[C@@H](n2nc(-c3ccc(Oc4ccccc4)cc3)c3c(N)ncnc32)C1 [ibrutinib]
Procedure, shortened: (§1)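 Pellets of K562 cells were dounce-homogenised in PBS pH 7.4 with 1 mM MgCl2, and the crude extract was held at 1 mg/mL protein for a 30 min treatment with 10 μM compound. Aliquots were heated for 3 min over 48°C-58°C and pooled before NP-40 was added to 0.5% at 4°C. The supernatant from 21,000xg for 90 min was quantified by TMTpro 16plex LC-MS/MS with channel sums equalised. Values are reported from duplicates as log-two fold change in thermal stability relative to solvent controls.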

[1] = compound: CC(=O)c1cnc2ccc(-c3cc(Cl)c(O)c(Cl)c3)nc2c1N[C@H]1CC[C@H](CN(C)C)CC1
Procedure, shortened: as §1

ralimetinib = compound: CC(C)(C)Cn1c(N)nc2ccc(-c3[nH]c(C(C)(C)C)nc3-c3ccc(F)cc3)nc21 [ralimetinib]
Procedure, shortened: as §1

[2] = compound: CC(C)(O)CC(=O)NCCn1ccc2ncnc(Nc3ccc(Oc4cccc(C(F)(F)F)c4)c(Cl)c3)c21
Procedure, shortened: as §1

[3] = compound: CC(C)C1=C2N=C(C=C(N2N=C1)NCC3=CC=CC=C3)NCCCCCCN
Procedure, shortened: as §1

[4] = compound: CC1=C(C(CC(=O)N1)C2=CC=C(C=C2)C(F)(F)F)C(=O)NC3=C(C=C4C(=C3)C=NN4)F
Procedure, shortened: as §1

[5] = compound: CC1=C(C2=C(C=C1)C(=O)C3=CC=CC=C3N2CCCN)C
Procedure, shortened: as §1

[6] = compound: CC1=C(C=C(C=C1)NC(=O)C2=CC(=CC=C2)C(C)(C)C#N)NC3=CC4=C(C=C3)N=CN(C4=O)C
Procedure, shortened: as §1

[7] = compound: CC1=C(C=C(C=C1)NC(=O)C2=CC(=CC=C2)N(C)C)NC(=O)C3=CC=C(C=C3)O
Procedure, shortened: as §1

[8] = compound: CC1=CC=C(C=C1)SC2=C3C=C(SC3=CN=C2)C(=O)N
Procedure, shortened: as §1

Row | Target | log2 fold change (ibrutinib) | log2 fold change [1] | log2 fold change (ralimetinib) | log2 fold change [2] | log2 fold change [3] | log2 fold change [4] | log2 fold change [5] | log2 fold change [6] | log2 fold change [7] | log2 fold change [8]
1 | CBWD2 (UniProt Q8IUF1) | inactive: 0.024 | inactive: 0.012 | inactive: -0.025 | inactive: -0.035 | inactive: -0.009 | inactive: -0.015 | inactive: -0.052 | inactive: 0.023 | inactive: -0.033 | inactive: -0.036
2 | CCT4 (UniProt P50991) | inactive: 0.005 | inactive: 0.015 | inactive: 0.01 | inactive: 0.019 | inactive: -0.028 | inactive: 0.002 | inactive: -0.01 | inactive: -0.012 | inactive: -0.017 | inactive: 0.018
3 | CASP3 (UniProt P42574) | inactive: 0.028 | inactive: -0.004 | inactive: 0.009 | inactive: 0.012 | inactive: -0.048 | inactive: -0.047 | inactive: -0.026 | inactive: 0.025 | inactive: -0.02 | inactive: -0.01
4 | CD58 (UniProt P19256) | inactive: 0 | inactive: -0.008 | inactive: 0.056 | inactive: 0.017 | inactive: -0.106 | inactive: -0.055 | inactive: 0.058 | inactive: -0.081 | inactive: -0.018 | inactive: 0.013
5 | CCM2 isoform 2 (UniProt Q9BSQ5) | inactive: 0.078 | inactive: 0.099 | inactive: -0.067 | inactive: 0.008 | inactive: 0 | inactive: 0.019 | inactive: -0.014 | inactive: 0.061 | inactive: 0.036 | inactive: -0.003
6 | CBR1 (UniProt P16152) | inactive: 0.04 | inactive: -0.017 | inactive: 0.009 | inactive: 0.006 | inactive: 0.001 | inactive: -0.032 | inactive: 0.045 | inactive: -0.015 | inactive: 0.02 | inactive: -0.003
7 | CCDC50 isoform 2 (UniProt Q8IVM0) | inactive: 0.068 | inactive: 0.019 | inactive: -0.014 | inactive: 0.072 | inactive: 0.002 | inactive: 0.014 | inactive: 0.066 | inactive: -0.009 | inactive: -0.008 | inactive: 0.009
8 | CAVIN1 (UniProt Q6NZI2) | inactive: 0.027 | inactive: -0.012 | inactive: -0.014 | inactive: -0.006 | inactive: -0.017 | inactive: -0.013 | inactive: -0.024 | inactive: 0.015 | inactive: 0.047 | inactive: 0
9 | CASP10 isoform 4 (UniProt Q92851) | inactive: 0.013 | inactive: 0.005 | inactive: 0.027 | inactive: -0.02 | inactive: 0.001 | inactive: 0.042 | inactive: 0.025 | inactive: 0.004 | inactive: -0.001 | inactive: 0.028
10 | CCDC117 (UniProt Q8IWD4) | inactive: -0.034 | inactive: 0.008 | inactive: 0.062 | inactive: -0.089 | inactive: -0.057 | inactive: -0.025 | inactive: -0.017 | inactive: 0.052 | inactive: -0.047 | inactive: -0.011
11 | CCDC86 (UniProt Q9H6F5) | inactive: -0.01 | inactive: -0.036 | inactive: -0.027 | inactive: -0.039 | inactive: 0.024 | inactive: -0.054 | inactive: -0.052 | inactive: 0.001 | inactive: -0.027 | inactive: -0.016
12 | CBS (UniProt P35520) | inactive: 0.005 | inactive: 0.012 | inactive: 0.01 | inactive: 0.01 | inactive: -0.011 | inactive: 0.015 | inactive: 0.015 | inactive: -0.025 | inactive: 0.003 | inactive: 0.006
13 | CCDC28A (UniProt Q8IWP9) | inactive: 0.05 | inactive: 0.054 | inactive: -0.031 | inactive: -0.031 | inactive: 0.013 | inactive: -0.069 | inactive: -0.006 | inactive: 0.069 | inactive: -0.019 | inactive: -0.066
14 | CCNH (UniProt P51946) | inactive: 0.018 | inactive: -0.149 | inactive: -0.001 | inactive: -0.064 | inactive: -0.058 | inactive: -0.044 | inactive: -0.025 | inactive: -0.044 | inactive: 0.018 | inactive: -0.016
15 | CC2D1A (UniProt Q6P1N0) | inactive: 0.022 | inactive: 0.01 | inactive: 0.034 | inactive: -0.007 | inactive: 0.019 | inactive: 0.013 | inactive: 0.005 | inactive: 0.024 | inactive: 0.013 | inactive: -0.037
16 | CD55 isoform 7 (UniProt P08174) | inactive: -0.008 | inactive: -0.017 | inactive: -0.04 | inactive: -0.087 | inactive: -0.004 | inactive: -0.011 | inactive: -0.026 | inactive: 0.002 | inactive: 0.007 | inactive: 0.011
17 | CARS isoform 3 (UniProt P49589) | inactive: -0.012 | inactive: 0.015 | inactive: -0.016 | inactive: 0.033 | inactive: -0.016 | inactive: -0.001 | inactive: 0.015 | inactive: -0.032 | inactive: 0.009 | inactive: 0.016
18 | CCS (UniProt O14618) | inactive: 0.066 | inactive: -0.013 | inactive: 0.009 | inactive: -0.01 | inactive: -0.014 | inactive: -0.014 | inactive: 0.018 | inactive: 0.01 | inactive: -0.011 | inactive: -0.017
19 | CCT2 (UniProt P78371) | inactive: -0.001 | inactive: 0.005 | inactive: -0.001 | inactive: 0.002 | inactive: -0.003 | inactive: -0.023 | inactive: 0.017 | inactive: -0.004 | inactive: -0.01 | inactive: 0.001
20 | CD320 (UniProt Q9NPF0) | inactive: 0.15 | inactive: -0.046 | inactive: -0.006 | inactive: 0.013 | inactive: -0.02 | inactive: 0.032 | inactive: 0.025 | inactive: -0.018 | inactive: -0.05 | inactive: 0
21 | CCDC90B (UniProt Q9GZT6) | inactive: 0.054 | inactive: -0.037 | inactive: 0.013 | inactive: -0.043 | inactive: -0.047 | inactive: -0.012 | inactive: -0.002 | inactive: 0.016 | inactive: 0.011 | inactive: -0.001
22 | CCNL2 (UniProt Q96S94) | inactive: 0.034 | inactive: 0.008 | inactive: -0.042 | inactive: -0.046 | inactive: 0.059 | inactive: -0.016 | inactive: -0.047 | inactive: -0.028 | inactive: 0.015 | inactive: -0.024
23 | CCDC32 isoform 2 (UniProt Q9BV29) | active: 0.276 | inactive: 0.026 | inactive: -0.005 | inactive: 0 | inactive: 0.047 | inactive: -0.017 | inactive: -0.03 | inactive: 0.051 | inactive: 0.028 | inactive: 0.03
24 | CD151 (UniProt P48509) | inactive: -0.054 | inactive: -0.012 | inactive: -0.016 | inactive: -0.051 | inactive: -0.017 | inactive: 0.089 | inactive: -0.351 | inactive: -0.243 | inactive: -0.03 | inactive: -0.004
25 | CCDC134 (UniProt Q9H6E4) | inactive: 0.028 | inactive: -0.001 | inactive: 0.008 | inactive: -0.02 | inactive: -0.017 | inactive: -0.005 | inactive: 0.008 | inactive: -0.05 | inactive: -0.015 | inactive: -0.008
26 | CCDC28B (UniProt Q9BUN5) | inactive: 0.061 | inactive: -0.215 | inactive: 0.064 | inactive: -0.118 | inactive: 0 | inactive: -0.039 | inactive: 0.07 | inactive: -0.003 | inactive: -0.001 | inactive: 0.033
27 | CCNA2 (UniProt P20248) | inactive: 0.005 | inactive: 0.16 | inactive: -0.003 | inactive: -0.013 | inactive: 0.022 | inactive: 0.003 | inactive: 0.008 | inactive: 0.047 | inactive: 0.007 | inactive: -0.029
28 | CCDC186 (UniProt Q7Z3E2) | inactive: 0.024 | inactive: -0.025 | inactive: -0.001 | inactive: -0.056 | inactive: -0.086 | inactive: 0.006 | inactive: 0.021 | inactive: -0.016 | inactive: 0 | inactive: -0.023
29 | CCT8 (UniProt P50990) | inactive: 0 | inactive: -0.017 | inactive: 0.001 | inactive: -0.007 | inactive: -0.007 | inactive: -0.026 | inactive: -0.001 | inactive: -0.004 | inactive: -0.004 | inactive: -0.005
30 | CARD9 (UniProt Q9H257) | inactive: -0.034 | inactive: 0.037 | inactive: 0.014 | inactive: -0.029 | inactive: 0.019 | inactive: -0.022 | inactive: -0.027 | inactive: -0.005 | inactive: -0.008 | inactive: -0.038

Rewritten as comma-separated lines: entries from further up.
Row,Target,log2 fold change (ibrutinib),log2 fold change [1],log2 fold change (ralimetinib),log2 fold change [2],log2 fold change [3],log2 fold change [4],log2 fold change [5],log2 fold change [6],log2 fold change [7],log2 fold change [8]
2,CCT4 (UniProt P50991),inactive: 0.005,inactive: 0.015,inactive: 0.01,inactive: 0.019,inactive: -0.028,inactive: 0.002,inactive: -0.01,inactive: -0.012,inactive: -0.017,inactive: 0.018
3,CASP3 (UniProt P42574),inactive: 0.028,inactive: -0.004,inactive: 0.009,inactive: 0.012,inactive: -0.048,inactive: -0.047,inactive: -0.026,inactive: 0.025,inactive: -0.02,inactive: -0.01
